Here are results for 56 compounds from PubChem BioAssay AID1487 (National Center for Advancing Translational Sciences (NCATS), 2009).

This assay can be described thus: qHTS Assay for Modulators of Lamin A Splicing. The following applies: HeLa LMNA splicing GFP/RFP minigene ratio, 48 h. Summed up: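 S3 HeLa cells stably expressing lamin A-EGFP splicing minigene plus DsRed2, 600 cells/well, 48 h compound exposure at 37C. Laser-scanning cytometry; analysed as GFP (500-530 nm)/RFP (575-640 nm) total intensity ratio; 0.5% DMSO vehicle.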
Background: In qHTS, concentration-response curves come from the screen itself.

[1] abbreviates: measured here: RFP viability control channel.
[2] abbreviates: measured here: GFP splicing reporter channel.

SMILES strings stand for the structures. This is one part of the list. Shown are side measurements of this screen, not its main read-out; they come without a call. The list favours compounds with an active or inconclusive main result. Words in brackets tell the shape of the fitted curve; partial curves, single points and poor fits give uncertain potencies.

In general, AC50 refers to the concentration giving half of the maximal activity seen. Take `Cc1[nH]nc(-c2ccc(O)c(C)c2O)c1Oc1ccccc1`: under setting [1], the AC50 was 11.2 µM [rising, single point].

In the case of `O=C(NCc1cccnc1)c1ccc(COc2ccccc2Br)cc1`, the AC50 under setting [1] is 35.5 µM [rising, single point].

Turning to `S=C(NNc1ccc2ccccc2c1)NC1CCCCC1`, the AC50 under setting [1] is 35.5 µM [rising, single point].

In the case of `CC(C)(C)c1ccc(-c2conc2N)cc1`, under setting [1], the AC50 is 12.6 µM [rising, partial curve].

`COc1ccc2cc(CN(Cc3cccs3)Cc3nnnn3Cc3ccccc3)c(=O)[nH]c2c1`: the AC50 under setting [1] is 11.2 µM [rising, partial curve].

Consider `CC(=O)c1sc(NC(=O)C2(F)C(F)(F)C(F)(F)C(F)(F)C(F)(F)C2(F)F)nc1C`, for which the AC50 under setting [1] was 4.47 µM [rising, partial curve].

As for `O=C(N1CCN=C1SCc1cccnc1)C12CC3CC(CC(C3)C1)C2`, under setting [1], the AC50 was 22.4 µM [rising, single point].

As to `CC(=O)Nc1sc2c(c1C(c1ccncc1)N1CCOCC1)CCCC2` (centres undefined), the AC50 was 0.00282 µM [falling, full curve] under setting [2] and 0.00891 µM [falling, full curve] under setting [1].

Consider `CC(=O)c1ccc(OCCCC(=O)Nc2ccc(C)c(S(=O)(=O)N(C)C)c2)cc1`, for which the AC50 under setting [1] is 25.1 µM [rising, single point].

On to `Clc1ccc(/C=C/c2nc3ccccc3[nH]2)cc1`, for which, under setting [1], the AC50 was 20 µM [falling, single point].

As to `Cc1cc(C)c(C#N)c(SCc2ccccc2F)n1`, the AC50 is 3.55 µM [falling, single point] under setting [2] and 2 µM [falling, full curve] under setting [1].

`CCOc1ccc(Br)cc1S(=O)(=O)Nc1ccccc1N1CCOCC1`: the AC50 by setting is: under setting [2], 15.8 µM [rising, single point]; under setting [1], 15.8 µM [rising, single point].

`O=C(CCl)Nc1ccccc1Sc1ccc(Cl)cc1`: the half-maximal activity concentration (AC50) under setting [2] was 35.5 µM [falling, single point] and the AC50 under setting [1] is 35.5 µM [falling, single point].

Take `CCC(=O)Nc1nc2ccccc2n1Cc1ccccc1C`: the AC50 was 35.5 µM [rising, single point] under setting [2] and 35.5 µM [rising, single point] under setting [1].

Regarding `Cc1ccc(C)c(N2CCN(C(=O)C3CCN(c4nc5ccc(C)cc5[nH]4)CC3)CC2)c1`, the AC50 under setting [2] is 2 µM [falling, partial curve].

As to `CCOc1ccc(C(=O)CCN2CCCCCC2)cc1`, the AC50 under setting [1] is 35.5 µM [falling, single point].

As for `O=C(NCc1ccncc1)C(=O)NCC(c1ccccc1)c1ccccc1`, the AC50 under setting [1] is 11.2 µM [rising, single point].

With `Clc1cccc(C[n+]2cc(-c3ccccc3)n3c2CCC3)c1`, the AC50 is 12.6 µM [rising, partial curve] under setting [2] and 25.1 µM [rising, partial curve] under setting [1].

As for `Cc1cccc(CCNC(=O)c2ccc3c(c2)N(Cc2ccccc2F)C(=O)c2ccccc2S3)c1`, the AC50 under setting [2] was 0.158 µM [falling, full curve, poor fit].

Consider `Cc1ccc(-c2cc(C(=O)Nc3cc(C)on3)no2)cc1`, for which the half-maximal activity concentration (AC50) under setting [1] is 0.0708 µM [rising, full curve, poor fit].

In the case of `CC1CCN(CCCOc2ccc(Cl)cc2Br)CC1`, the half-maximal activity concentration (AC50) under setting [2] is 7.08 µM [falling, full curve] and the AC50 under setting [1] was 8.91 µM [falling, partial curve, poor fit].

On to `Cn1cnc(S(=O)(=O)NCc2ccccc2)c1`, for which the AC50 under setting [1] was 3.55 µM [falling, partial curve, poor fit].

Consider `CCC(C(=O)Nc1cc(OC)cc(OC)c1)n1nc(-c2ccc(C)c(C)c2)ccc1=O` (centres undefined), for which, under setting [1], the AC50 is 0.282 µM [falling, full curve, poor fit].

As for `COc1ccc(C2CC(c3cccs3)=NN2C(=O)CSc2nc3ccccc3o2)cc1` (centres undefined), the AC50 under setting [1] is 17.8 µM [rising, partial curve, poor fit].

Turning to `O=c1c(=NNc2ccccc2Cl)c(=O)c2ccccc12`, the half-maximal activity concentration (AC50) reads like this: under setting [2], 35.5 µM [falling, single point]; under setting [1], 20 µM [falling, partial curve].

For the compound `O=C(Nc1ccccc1C(=O)NCCN1CCOCC1)c1ccc(Cl)cc1Cl`, the AC50 under setting [2] is 0.0141 µM [rising, full curve, poor fit].

For `CC(C)N(C(=O)CSc1nnc(CSc2ncccn2)n1C)C(C)C`, the AC50 under setting [2] is 0.0126 µM [falling, full curve, poor fit].

For `COc1ccc(F)cc1S(=O)(=O)Nc1ccc2c(c1)OCCO2`, the AC50 under setting [1] is 20 µM [rising, single point].

`CC1=C(C(=O)Nc2ccccc2C(F)(F)F)C(c2sccc2C)NC(=S)N1` (centres undefined): the AC50 under setting [2] was 6.31 µM [falling, partial curve, poor fit] and the AC50 under setting [1] was 22.4 µM [rising, single point].

Regarding `CCc1ccc(CN(Cc2ccco2)c2cnc(S(C)(=O)=O)nc2C(=O)Nc2ccccc2Cl)cc1`, the AC50 reads like this: under setting [2], 5.62 µM [falling, single point]; under setting [1], 6.31 µM [falling, single point].

For the compound `CC1CC(N(C(=O)C2CC2)c2ccccc2)c2ccccc2N1C(=O)C1CC1` (centres undefined), the AC50 under setting [2] was 10 µM [rising, partial curve] and the AC50 under setting [1] is 15.8 µM [rising, partial curve].

As for `Fc1ccc(Nc2c3c(nc4ccccc24)CCC3)cc1`, the half-maximal activity concentration (AC50) under setting [2] is 2.82 µM [falling, full curve] and the AC50 under setting [1] was 2 µM [falling, partial curve, poor fit].

For the compound `COc1ccc(CC(=O)Nc2cccc(S(=O)(=O)N3CCCCCC3)c2)cc1OC`, the AC50 reads like this: under setting [2], 1.26 µM [rising, partial curve]; under setting [1], 1.12 µM [rising, full curve].

Turning to `Cc1ccc2nc(/C(C#N)=C\c3ccc(N4CCCCC4)c([N+](=O)[O-])c3)[nH]c2c1`, the AC50 under setting [2] is 15.8 µM [rising, single point].

As to `C=CCCCCCCCCCCC/C=C/C(O)COC(C)=O` (centres undefined), the AC50 reads like this: under setting [2], 4.47 µM [rising, full curve, poor fit]; under setting [1], 8.91 µM [rising, partial curve, poor fit].

Consider `CCc1[nH]nc2c1C(c1ccncc1)C(C#N)=C(N)O2` (centres undefined), for which, under setting [1], the AC50 was 15.8 µM [rising, single point].

For the compound `CCS(=O)(=O)N1Cc2ccccc2CC1C(=O)Nc1nc2ccc(F)cc2s1` (centres undefined), under setting [1], the AC50 was 10 µM [rising, partial curve, poor fit].

For the compound `CC(CC(=O)Nc1ncc([N+](=O)[O-])s1)c1ccccc1` (centres undefined), the AC50 was 0.631 µM [rising, full curve] under setting [2] and 20 µM [rising, single point] under setting [1].

With `Cc1cc(C(F)(F)F)nn1CC(=O)NCc1ccco1`, the AC50 under setting [1] was 8.91 µM [falling, partial curve, poor fit].

Consider `COc1ccc(Cn2c(-c3ccc(Cl)cc3)c[n+]3ccccc23)cc1`, for which the AC50 under setting [1] was 5.01 µM [rising, full curve].

Regarding `Oc1ccccc1N1CCN(C(=S)NCc2ccccc2)CC1`, the AC50 under setting [2] is 1 µM [falling, partial curve, poor fit] and the AC50 under setting [1] was 0.0447 µM [falling, full curve, poor fit].

Regarding `CNC(=S)N/N=C/c1ccc(-c2ccc(Cl)c([N+](=O)[O-])c2)o1`, the AC50 is 15.8 µM [falling, single point] under setting [2] and 12.6 µM [falling, partial curve] under setting [1].

With `COc1ccc(Br)cc1CNC(=O)c1cc2n(n1)CCCN(Cc1ccc(C)cc1)C2=O`, the concentration at half-maximal activity (AC50) under setting [1] was 1.58 µM [falling, partial curve, poor fit].

As to `COC(=O)c1ccccc1NC(=O)CSc1nc2ncccc2[nH]1`, the AC50 under setting [1] was 0.0251 µM [falling, full curve, poor fit].

Take `O=C(COc1ccccc1)Nc1ccc(N2CCN(C(=O)c3cccs3)CC2)cc1`: the AC50 was 7.94 µM [falling, partial curve] under setting [2] and 2.51 µM [falling, partial curve] under setting [1].

For `O=C1C(=O)c2c(C(=O)c3ccccc3)coc2-c2ccccc21`, the AC50 by setting is: under setting [2], 35.5 µM [falling, single point]; under setting [1], 35.5 µM [falling, partial curve].

For `N#CC1=C(S)N=C(N)C(c2nc(-c3ccccc3)cs2)C12CCCCC2` (centres undefined), the AC50 under setting [1] is 12.6 µM [rising, single point].

With `Cc1ccc(/C=N/NC(=O)c2cc(C3CC3)nc3ccccc23)o1`, under setting [1], the AC50 was 11.2 µM [rising, partial curve].

On to `Cc1ccc(C2c3[nH]c4ccccc4c3CCN2C(=O)c2cccc(C)c2)cc1` (centres undefined), for which the AC50 under setting [2] is 0.158 µM [rising, full curve, poor fit] and the AC50 under setting [1] is 3.98 µM [rising, single point].

On to `O=S(=O)(Nc1nc2c(s1)CCCC2)c1ccc2ccccc2c1`, for which, under setting [1], the AC50 was 15.8 µM [rising, single point].

Regarding `CCCC(C(=O)n1nc(C)cc1C)C(NS(=O)(=O)c1ccc(C)cc1)c1ccccc1` (centres undefined), the AC50 was 35.5 µM [rising, single point] under setting [2] and 17.8 µM [rising, single point] under setting [1].

Consider `CC1CC(OC(=O)C(O)c2ccccc2)CC(C)(C)N1C` (centres undefined), for which the AC50 by setting is: under setting [2], 35.5 µM [falling, single point]; under setting [1], 35.5 µM [falling, single point].

For `CCCn1c2c(c(=N)c3c1CCC3)CCCC2`, the AC50 is 2 µM [rising, full curve] under setting [2] and 6.31 µM [rising, partial curve] under setting [1].

Take `CCC(Sc1ncnc2c1c(-c1ccccc1)cn2-c1ccc(OC)cc1)C(=O)OC` (centres undefined): the AC50 under setting [1] is 6.31 µM [rising, partial curve, poor fit].

Consider `O=C(CSC1=NCCS1)NCc1ccco1`, for which the half-maximal activity concentration (AC50) under setting [1] was 25.1 µM [rising, single point].

Take `CCC(Cc1ccccc1)NC(=O)C1=C(C)C(=O)OC12CCC(C)CC2` (centres undefined): the AC50 under setting [1] is 0.0398 µM [falling, full curve, poor fit].
